Measured values from PMC7663391.
Results are given in words; binding and its absence hold for the method and conditions named. For some assays here: In cells and extracts the contact can be indirect. Some entries that bind do so weakly or less than the wild type. Sequences can lack the tags named with a protein.

Key:
[1] = target: T1, AHA2 C-terminal (amino acids 836-948), yeast two-hybrid fusion (Arabidopsis thaliana) (UniProt P19456); experiment: two-hybrid; yeast AH109; AHA2 C-terminal as bait, PEPR2 KD as prey; growth on SD-Trp-Leu-His-Ade at dilutions 10^-1 to 10^-3, 30 °C, 4 days; empty pGADT7 and pGBKT7 as negative controls
T1 sequence: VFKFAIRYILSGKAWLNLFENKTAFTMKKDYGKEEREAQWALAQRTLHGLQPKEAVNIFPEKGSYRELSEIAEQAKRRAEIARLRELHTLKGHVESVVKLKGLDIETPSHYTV

[2] = target: T2, AHA2 full length fused to the C-terminal part of YFP (AHA2:pSPYCE(M)) (Arabidopsis thaliana) (UniProt P19456); experiment: split reporter; BiFC with split YFP in Nicotiana benthamiana leaves, co-infiltrated with the p19 strain; confocal microscopy 2-3 days after injection; empty YC and YN vectors as controls
T2 sequence: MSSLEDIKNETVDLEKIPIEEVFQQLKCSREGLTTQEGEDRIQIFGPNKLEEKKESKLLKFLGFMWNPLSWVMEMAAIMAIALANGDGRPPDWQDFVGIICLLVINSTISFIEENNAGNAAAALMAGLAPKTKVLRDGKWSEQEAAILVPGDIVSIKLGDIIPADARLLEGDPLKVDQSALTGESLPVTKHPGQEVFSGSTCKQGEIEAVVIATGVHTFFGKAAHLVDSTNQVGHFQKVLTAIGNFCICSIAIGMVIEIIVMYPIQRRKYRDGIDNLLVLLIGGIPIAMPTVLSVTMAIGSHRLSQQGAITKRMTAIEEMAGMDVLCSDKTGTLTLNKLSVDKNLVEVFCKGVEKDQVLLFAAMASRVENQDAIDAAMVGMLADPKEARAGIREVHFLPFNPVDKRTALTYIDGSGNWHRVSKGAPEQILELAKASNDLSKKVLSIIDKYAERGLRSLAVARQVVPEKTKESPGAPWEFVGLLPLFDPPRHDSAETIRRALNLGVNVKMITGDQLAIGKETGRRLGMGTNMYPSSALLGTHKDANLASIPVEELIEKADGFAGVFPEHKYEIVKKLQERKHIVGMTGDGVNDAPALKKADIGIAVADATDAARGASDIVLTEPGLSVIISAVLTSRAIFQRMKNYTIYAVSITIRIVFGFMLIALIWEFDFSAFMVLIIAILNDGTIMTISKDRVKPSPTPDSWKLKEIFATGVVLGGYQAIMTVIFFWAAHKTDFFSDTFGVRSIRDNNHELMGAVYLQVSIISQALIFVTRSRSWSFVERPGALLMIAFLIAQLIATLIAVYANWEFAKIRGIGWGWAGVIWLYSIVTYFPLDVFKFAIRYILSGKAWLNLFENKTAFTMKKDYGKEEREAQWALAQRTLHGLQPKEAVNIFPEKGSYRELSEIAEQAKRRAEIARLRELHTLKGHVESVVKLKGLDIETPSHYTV

B1: PEPR2 kinase domain, C terminus (amino acids 760-1072), yeast two-hybrid fusion (domain or fragment, UniProt Q9FZ59 760-1072)
chain: LCRCKRGTKTEDANILAEEGLSLLLNKVLAATDNLDDKYIIGRGAHGVVYRASLGSGEEYAVKKLIFAEHIRANQNMKREIETIGLVRHRNLIRLERFWMRKEDGLMLYQYMPNGSLHDVLHRGNQGEAVLDWSARFNIALGISHGLAYLHHDCHPPIIHRDIKPENILMDSDMEPHIGDFGLARILDDSTVSTATVTGTTGYIAPENAYKTVRSKESDVYSYGVVLLELVTGKRALDRSFPEDINIVSWVRSVLSSYEDEDDTAGPIVDPKLVDELLDTKLREQAIQVTDLALRCTDKRPENRPSMRDVVKD
binding [1]: binds

B2: PEPR2 full length fused to the N-terminal part of YFP (pSPYNE(R)173:PEPR2) (receptor, UniProt Q9FZ59 27-1088)
chain: LNSDGLALLSLLKHFDKVPLEVASTWKENTSETTPCNNNWFGVICDLSGNVVETLNLSASGLSGQLGSEIGELKSLVTLDLSLNSFSGLLPSTLGNCTSLEYLDLSNNDFSGEVPDIFGSLQNLTFLYLDRNNLSGLIPASVGGLIELVDLRMSYNNLSGTIPELLGNCSKLEYLALNNNKLNGSLPASLYLLENLGELFVSNNSLGGRLHFGSSNCKKLVSLDLSFNDFQGGVPPEIGNCSSLHSLVMVKCNLTGTIPSSMGMLRKVSVIDLSDNRLSGNIPQELGNCSSLETLKLNDNQLQGEIPPALSKLKKLQSLELFFNKLSGEIPIGIWKIQSLTQMLVYNNTLTGELPVEVTQLKHLKKLTLFNNGFYGDIPMSLGLNRSLEEVDLLGNRFTGEIPPHLCHGQKLRLFILGSNQLHGKIPASIRQCKTLERVRLEDNKLSGVLPEFPESLSLSYVNLGSNSFEGSIPRSLGSCKNLLTIDLSQNKLTGLIPPELGNLQSLGLLNLSHNYLEGPLPSQLSGCARLLYFDVGSNSLNGSIPSSFRSWKSLSTLVLSDNNFLGAIPQFLAELDRLSDLRIARNAFGGKIPSSVGLLKSLRYGLDLSANVFTGEIPTTLGALINLERLNISNNKLTGPLSVLQSLKSLNQVDVSYNQFTGPIPVNLLSNSSKFSGNPDLCIQASYSVSAIIRKEFKSCKGQVKLSTWKIALIAAGSSLSVLALLFALFLVLCRCKRGTKTEDANILAEEGLSLLLNKVLAATDNLDDKYIIGRGAHGVVYRASLGSGEEYAVKKLIFAEHIRANQNMKREIETIGLVRHRNLIRLERFWMRKEDGLMLYQYMPNGSLHDVLHRGNQGEAVLDWSARFNIALGISHGLAYLHHDCHPPIIHRDIKPENILMDSDMEPHIGDFGLARILDDSTVSTATVTGTTGYIAPENAYKTVRSKESDVYSYGVVLLELVTGKRALDRSFPEDINIVSWVRSVLSSYEDEDDTAGPIVDPKLVDELLDTKLREQAIQVTDLALRCTDKRPENRPSMRDVVKDLTDLESFVRSTSGSVH
binding [2]: binds
